The text below walks through data of PMC10997846.

The chains behind the UniProt entries cited, without tags or fusion partners.
UniProt O60262: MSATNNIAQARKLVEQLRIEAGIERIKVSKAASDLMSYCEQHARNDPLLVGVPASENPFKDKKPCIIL

No constants are given. Whether binding was seen depends on the method and setting. In cells and extracts the contact can be indirect. Some entries that bind do so weakly or less than the wild type.

In this assay the target is T1, R-spondin 3 (human (endogenous in AGS or MKN45 gastric cancer cells)) (UniProt Q9BXY4).
T1 sequence: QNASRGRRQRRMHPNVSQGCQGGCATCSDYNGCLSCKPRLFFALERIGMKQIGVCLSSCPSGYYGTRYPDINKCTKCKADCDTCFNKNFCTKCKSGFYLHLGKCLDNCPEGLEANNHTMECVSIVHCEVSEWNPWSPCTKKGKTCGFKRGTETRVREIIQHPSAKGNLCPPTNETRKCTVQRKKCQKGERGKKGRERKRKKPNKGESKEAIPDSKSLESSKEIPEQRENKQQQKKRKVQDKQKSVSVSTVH
The experiment in a line: co-IP; IP and western blotting from cellular lysate (CoIP kit, Protein A + G Agarose, 4°C). Background: Immunoblotting shows a protein as a band on a membrane.

For “G protein subunit gamma 7 (from UniProt O60262 1-68)”, the binding result is “binds”.
